For at least one compound, name, drawing or mass did not settle the structure.
System: porcine carotid arteries exposed to porcine pancreatic elastase
Experiment: Tissue resistance to elastase degradation after treatment
Type: biochemical
Conditions: 0.6% Glut, 0.15% PGG, 20 minutes total treatment (cocktail 20 min or 10 min + 10 min sequential); elastase 3 units/mL 24 hrs 37° C.; compared to saline controls
Protocol: This example involves model results based on in vitro treatment of tissue samples for period of time that are realistic for in vivo applications. Specifically, tissue resistance to elastase degradation after treatment with various reagents is discussed. Specifically, porcine carotid arteries were treated with saline (control, for 20 minutes), Glut (for 20 minutes), PGG (for 20 minutes), or a combination of the two (Glut+PGG for 20 minutes, or Glut for 10 minutes followed by a separate incubation with PGG for 10 minutes). Concentrations of the reagents used were 0.6% (w/v) for Glut, 0.15% (w/v) for PGG and 9 g/L for physiological saline.
The treated tissue was then exposed to an in vitro elastase digestion assay to subject the treated tissue to digestion for 24 hrs. Briefly, tissue samples were incubated individually with 1 mL of 3 units/mL porcine pancreatic elastase (Elastin Products Company; Owensville, Mo.) dissolved in 100 mM Tris buffer, 1 mM CaCl2, 0.02% NaN3, pH 7.8. Incubation with the elastase was conducted for 24 hrs at 37° C. with orbital shaking at 500 rpm. Because the values shown are percentage of digestion, the lower the value, the better the reagent used performed in resisting elastase degradation. […] It should be noted that the digestion model used in this experiment is a very accelerated and aggressive digestion model.

SMILES: O=C(OC[C@H]1O[C@@H](OC(=O)c2cc(O)c(O)c(O)c2)[C@H](OC(=O)c2cc(O)c(O)c(O)c2)[C@@H](OC(=O)c2cc(O)c(O)c(O)c2)[C@@H]1OC(=O)c1cc(O)c(O)c(O)c1)c1cc(O)c(O)c(O)c1 [PGG, pentagalloylglucose]
- percentage digestion by elastase (resistance to degradation): slightly improved the resistance of the tissue to degradation

Reference: patent publication US20160136109A1, “COMPOSITIONS FOR TISSUE STABILIZATION” (Vatrix Medical, Inc., priority 2008, published 2016)
